No constants are given. Whether binding was seen depends on the method and setting. In cells and extracts the contact can be indirect. Some results given as binding are weak or reduced against the parent protein; the word gives no strength. Sequences can lack the tags named with a protein.

Our source for the binding values is paper PMC7153906.

The target in the test is T1, TMEM98-V5 (mouse) (UniProt Q91X86).
T1 sequence: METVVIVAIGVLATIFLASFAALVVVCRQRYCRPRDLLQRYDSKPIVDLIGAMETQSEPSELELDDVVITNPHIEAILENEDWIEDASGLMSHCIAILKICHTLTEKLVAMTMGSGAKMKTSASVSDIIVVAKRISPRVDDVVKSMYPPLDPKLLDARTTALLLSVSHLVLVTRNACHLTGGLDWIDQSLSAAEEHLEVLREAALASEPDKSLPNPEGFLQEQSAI
Nature of the test: co-IP; HEK293T cells transiently co-transfected (5 μg of each plasmid), lysed after 24 hours in Cell Lysis Buffer; anti-V5 agarose affinity gel at 4°C overnight; Western blot with anti-MYC, anti-FLAG and anti-V5. For orientation: Immunoblotting shows a protein as a band on a membrane.

B1: MYC-MYRF-FLAG (intact, full-length) (protein, UniProt Q3UR85 1-1138)
chain: MEVVDETEALQRFFEGHDISGALEPSNIDTSILEEYIGKEDASDLCFPEISAPASTASFPHGPPAIPGSSGLHHLSPPGSGPSPGRHGPLPPPTYGTPLNCNNNNGMGTAPKPFLGGSGPPIKAEPKAPYAPGTLPDSPPDSGSEAYSPQQVNDPHLLRTITPETLCHVGVSSRLEHPPPPPAHLPGPPPPPPPPPHYPVLQRDLYMKAEPPVPPYAAMGPGLVPPELHHTQQTQVLHQLLQQHGAELPPHPSKKRKHSESPPNTLNAQMLNGMIKQEPGTVTALPPHPARAPSPPWPPQGPLSPGTGSLPLSIARAQTPPWHPPGAPSPGLLQDSDSLSGSYLDPNYQSIKWQPHQQNKWATLYDANYKELPMLTYRVDADKGFNFSVGDDAFVCQKKNHFQVTVYIGMLGEPKYVKTPEGLKPLDCFYLKLHGVKLEALNQSINIEQSQSDRSKRPFNPVTVNLPPEQVTKVTVGRLHFSETTANNMRKKGKPNPDQRYFMLVVALQAHAQNQNYTLAAQISERIIVRASNPGQFESDSDVLWQRAQLPDTVFHHGRVGINTDRPDEALVVHGNVKVMGSLMHPSDLRAKEHVQEVDTTEQLKRISRMRLVHYRYKPEFAASAGIEATAPETGVIAQEVKEILPEAVKDTGDVVFANGKTIENFLVVNKERIFMENVGAVKELCKLTDNLETRIDELERWSHKLAKLRRLDSLKSTGSSGAFSHAGSQFSRAGSVPHKKRPPKLANKSSPAVPDQACISQRFLQGTIIALVVVMAFSVVSMSTLYVLSLRSEEDLVDADGSLAVSTSCLLALLRPQDPGGSEAMCPWSSQSFGTTQLRQSSMTTGLPGTQPSLLLVTKSASGPALRALDLCSSQPCPIVCCSPPVSSPATDPALGPTLTPTPSPSSNPKHSGPGQMAPLPVTNIRAKSWGISANGISYSKHSKSLEPLASPVVPFPGGQSKTKNSPSFNLQSRARRGAPQPSPSPAQFTQTQGQLDPAPSLTSIQLLENSMPITSQYCVPEGACRLGNFTYHIPVSSSTPLHLSLTLQMNSSTPVSVVLCSLTSEEEPCEEGGFLQRFHPHQDTQGTSHQWPVTILSFREFTYHFRVTLLGQANCSSEAIVQPATDYYFHFYRLCD
For the molecule B1, the binding result is listed as “binds”.
